Experimental data published in publication PMC8492328.
Results are given in words; binding and its absence hold for the method and conditions named. In cells and extracts the contact can be indirect. Some binding calls cover weakened binding; strength is not graded here.

Protein sequences, listed by entry. Tags and fused reporters are not part of them. Lines headed by an entry give the natural chain unless they say otherwise; changes in a name come on top.
UniProt Q9EPA7: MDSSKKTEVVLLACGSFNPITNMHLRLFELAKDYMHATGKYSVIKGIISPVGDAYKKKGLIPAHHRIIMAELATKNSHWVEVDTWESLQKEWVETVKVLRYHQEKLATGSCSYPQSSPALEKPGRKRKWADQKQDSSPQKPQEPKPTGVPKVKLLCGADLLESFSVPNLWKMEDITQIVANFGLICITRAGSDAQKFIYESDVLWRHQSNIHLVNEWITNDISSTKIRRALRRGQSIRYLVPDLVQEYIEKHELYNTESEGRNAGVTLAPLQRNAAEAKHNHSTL
UniProt Q8BKJ9: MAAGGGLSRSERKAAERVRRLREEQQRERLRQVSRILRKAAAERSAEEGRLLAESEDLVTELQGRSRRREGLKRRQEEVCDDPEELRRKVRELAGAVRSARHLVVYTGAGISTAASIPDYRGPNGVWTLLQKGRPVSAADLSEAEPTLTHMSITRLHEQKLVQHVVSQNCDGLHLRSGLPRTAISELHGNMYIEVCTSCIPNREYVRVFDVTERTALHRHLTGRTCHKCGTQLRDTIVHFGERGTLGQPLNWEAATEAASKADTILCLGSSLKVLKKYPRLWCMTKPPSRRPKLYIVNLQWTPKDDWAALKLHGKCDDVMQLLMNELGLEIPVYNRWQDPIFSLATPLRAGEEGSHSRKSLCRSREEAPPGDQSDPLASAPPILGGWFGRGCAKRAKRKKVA

What was measured:
[1] = molecular target: Flag-tagged NMNAT1 (mouse) (UniProt Q9EPA7); assay: co-IP; Flag-tagged NMNAT1 (WT or K56R) immunoprecipitated from Hepa1.6 hepatocytes, Western blot of LSD1, SIRT1, SIRT7; cells with control siRNA or LSD1 siRNA (Figures 3G, 5C, 5D)
[2] = molecular target: Flag-tagged mutant NMNAT1 (lysine to arginine, K56R) (mouse) (UniProt Q9EPA7); assay: as above

binding [1]: binds
binding [2]: binds
Substance: SIRT7 (in hepatocytes) (from UniProt Q8BKJ9 1-402) (enzyme)
